No constants are given. Whether binding was seen depends on the method and setting. In cells and extracts the contact can be indirect. Here binding means that the protein was enriched with, or labelled near, the bait; the list need not be complete. Sequences can lack the tags named with a protein.
T1: TAP-AtSYP32 (9 x myc-AtSYP32) fusion protein (Arabidopsis thaliana) (UniProt Q9LK09)
T1 sequence: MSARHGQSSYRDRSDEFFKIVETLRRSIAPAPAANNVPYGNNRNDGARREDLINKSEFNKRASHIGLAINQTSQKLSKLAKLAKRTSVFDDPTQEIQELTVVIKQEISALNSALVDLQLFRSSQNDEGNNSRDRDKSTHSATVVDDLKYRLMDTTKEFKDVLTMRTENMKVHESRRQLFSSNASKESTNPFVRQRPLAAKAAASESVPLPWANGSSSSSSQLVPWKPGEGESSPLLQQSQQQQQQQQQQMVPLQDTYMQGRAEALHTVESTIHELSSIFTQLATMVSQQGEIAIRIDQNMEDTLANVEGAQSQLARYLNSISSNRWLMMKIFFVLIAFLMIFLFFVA


Target: T1, TAP-AtSYP32 (9 x myc-AtSYP32) fusion protein (Arabidopsis thaliana)
Test: affinity purification with mass spectrometry

Binder	binding
CESA9 (endogenous) (enzyme, UniProt Q9SJ22 1-1088) MNTGGRLIAGSHNRNEFVLINADDTARIRSAEELSGQTCKICRDEIELTDNGEPFIACNECAFPTCRPCYEYERREGNQACPQCGTRYKRIKGSPRVEGDEEDDDIDDLEHEFYGMDPEHVTEAALYYMRLNTGRGTDEVSHLYSASPGSEVPLLTYCDEDSDMYSDRHALIVPPSTGLGNRVHHVPFTDSFASIHTRPMVPQKDLTVYGYGSVAWKDRMEVWKKQQIEKLQVVKNERVNDGDGDGFIVDELDDPGLPMMDEGRQPLSRKLPIRSSRINPYRMLIFCRLAILGLFFHYRILHPVNDAFGLWLTSVICEIWFAVSWILDQFPKWYPIERETYLDRLSLRYEKEGKPSELAPVDVFVSTVDPLKEPPLITANTVLSILAVDYPVEKVACYVSDDGAAMLTFEALSYTAEFARKWVPFCKKFSIEPRAPEWYFSQKMDYLKHKVDPAFVMERRAMKRDYEEFKVKINALVSVSQKVPEDGWTMQDGTPWPGNNVRDHPGMIQVFLGHSGVCDMDGNELPRLVYVSREKRPGFDHHKKAGAMNSLIRVSAVLSNAPYLLNVDCDHYINNSKAIREAMCFMMDPQSGKKICYVQFPQRFDGIDRHDRYSNRNVVFFDINMKGLDGIQGPIYVGTGCVFRRQALYGFDAPKKKQPPGRTCNCWPKWCCLCCGMRKKKTGKVKDNQRKKPKETSKQIHALEHIEEGLQVTNAENNSETAQLKLEKKFGQSPVLVASTLLLNGGVPSNVNPASLLRESIQVISCGYEEKTEWGKEIGWIYGSVTEDILTGFKMHCHGWRSVYCMPKRAAFKGSAPINLSDRLHQVLRWALGSVEIFLSRHCPIWYGYGGGLKWLERFSYINSVVYPWTSLPLLVYCSLPAICLLTGKFIVPEISNYAGILFLLMFMSIAVTGILEMQWGKIGIDDWWRNEQFWVIGGVSSHLFALFQGLLKVLAGVSTNFTVTSKAADDGEFSELYIFKWTSLLIPPTTLLIINIVGVIVGVSDAINNGYDSWGPLFGRLFFALWVIVHLYPFLKGLLGKQDRVPTIILVWSILLASILTLLWVRVNPFVSKDGPVLEICGLDCLK	binds
CESA1 (endogenous) (enzyme, UniProt O48946 1-1081) MEASAGLVAGSYRRNELVRIRHESDGGTKPLKNMNGQICQICGDDVGLAETGDVFVACNECAFPVCRPCYEYERKDGTQCCPQCKTRFRRHRGSPRVEGDEDEDDVDDIENEFNYAQGANKARHQRHGEEFSSSSRHESQPIPLLTHGHTVSGEIRTPDTQSVRTTSGPLGPSDRNAISSPYIDPRQPVPVRIVDPSKDLNSYGLGNVDWKERVEGWKLKQEKNMLQMTGKYHEGKGGEIEGTGSNGEELQMADDTRLPMSRVVPIPSSRLTPYRVVIILRLIILCFFLQYRTTHPVKNAYPLWLTSVICEIWFAFSWLLDQFPKWYPINRETYLDRLAIRYDRDGEPSQLVPVDVFVSTVDPLKEPPLVTANTVLSILSVDYPVDKVACYVSDDGSAMLTFESLSETAEFAKKWVPFCKKFNIEPRAPEFYFAQKIDYLKDKIQPSFVKERRAMKREYEEFKVRINALVAKAQKIPEEGWTMQDGTPWPGNNTRDHPGMIQVFLGHSGGLDTDGNELPRLIYVSREKRPGFQHHKKAGAMNALIRVSAVLTNGAYLLNVDCDHYFNNSKAIKEAMCFMMDPAIGKKCCYVQFPQRFDGIDLHDRYANRNIVFFDINMKGLDGIQGPVYVGTGCCFNRQALYGYDPVLTEEDLEPNIIVKSCCGSRKKGKSSKKYNYEKRRGINRSDSNAPLFNMEDIDEGFEGYDDERSILMSQRSVEKRFGQSPVFIAATFMEQGGIPPTTNPATLLKEAIHVISCGYEDKTEWGKEIGWIYGSVTEDILTGFKMHARGWISIYCNPPRPAFKGSAPINLSDRLNQVLRWALGSIEILLSRHCPIWYGYHGRLRLLERIAYINTIVYPITSIPLIAYCILPAFCLITDRFIIPEISNYASIWFILLFISIAVTGILELRWSGVSIEDWWRNEQFWVIGGTSAHLFAVFQGLLKVLAGIDTNFTVTSKATDEDGDFAELYIFKWTALLIPPTTVLLVNLIGIVAGVSYAVNSGYQSWGPLFGKLFFALWVIAHLYPFLKGLLGRQNRTPTIVIVWSVLLASIFSLLWVRINPFVDANPNANNFNGKGGVF	binds
SEC22 (endogenous) (protein, UniProt Q94AU2 1-218) MVKMTLIARVTDGLPLAEGLDDGRDLPDSDMYKQQVKALFKNLSRGQNDASRMSVETGPYVFHYIIEGRVCYLTMCDRSYPKKLAFQYLEDLKNEFERVNGPNIETAARPYAFIKFDTFIQKTKKLYQDTRTQRNIAKLNDELYEVHQIMTRNVQEVLGVGEKLDQVSEMSSRLTSESRIYADKAKDLNRQALIRKWAPVAIVFGVVFLLFWVKNKLW	binds
Dynamin related protein2A (DRP2A) (endogenous) (protein, UniProt Q9SE83 1-914) MEAIDELSQLSDSMKQAASLLADEDPDETSSSKRPATFLNVVALGNVGAGKSAVLNSLIGHPVLPTGENGATRAPIIIELSRESSLSSKAIILQIDNKSQQVSASALRHSLQDRLSKGASGKNRDEINLKLRTSTAPPLKLVDLPGLDQRIVDESMIAEYAQHNDAILLVIVPASQASEISSSRALKIAKEYDPESTRTIGIIGKIDQAAENSKALAAVQALLSNQGPPKTTDIPWVAVIGQSVSIASAQSGSGENSLETAWRAESESLKSILTGAPQSKLGRIALVDTLASQIRSRMKLRLPSVLSGLQGKSQIVQDELARLGEQLVNSAEGTRAIALELCREFEDKFLLHLAGGEGSGWKVVASFEGNFPNRIKQLPLDRHFDLNNVKRVVLEADGYQPYLISPEKGLRSLIKIVLELAKDPARLCVDEVHRVLVDIVSASANATPGLGRYPPFKREVVAIASAALDGFKNEAKKMVVALVDMERAFVPPQHFIRLVQRRMERQRREEELKGRSSKKGQDAEQSLLSRATSPQPDGPTAGGSLKSMKDKPSPQDKETPEVSGLKTAGPEGEITAGYLMKKSAKTNGWSRRWFVLNEKTGKLGYTKKQEERNFRGTITLEECTIEEIPEDEVEKSKSSKDKKANGPDSKGPGLVFKITCKVPYKTVLKAHNALVLKAESVVDKNEWINKLQKVIQARGGQVGSVSMRQSLSEGSLDKMVRKPIDPEEELRWMSQEVRGYVEAVLNSLAANVPKAVVLCQVEKAKEDMLNQLYSSISAIGNERIESLIQEDQNVKRRRERYQKQSSLLSKLTRQLSIHDNRAAAASSYSDNSGTESSPRASGGSSGDDWMNAFNSAANGPSDSLSKYGSGGHSRRYSDPAQNGDAASPGSGSNRRTTPNRLPPAPPPTGSAYRY	binds
BET11 (endogenous) (protein, UniProt Q9M2J9 1-122) MNPRREPRGGRSSLFDGIEEGGIRAASSYSHEINEHENERALEGLQDRVILLKRLSGDINEEVDTHNRMLDRMGNDMDSSRGFLSGTMDRFKTVFETKSSRRMLTLVASFVGLFLVIYYLTR	binds

Now from value to binder:

binding	Binder
binds	SEC31B (endogenous) (protein, UniProt Q8L611 1-1104) MACIKGVGRSASVALAPDAPYMAAGTMAGAVDLSFSSSANLEIFKLDFQSDDRDLPLVGEIPSSERFNRLAWGRNGSGSEEFALGLIAGGLVDGNIDLWNPLSLIGSQPSENALVGHLSVHKGPVRGLEFNAISSNLLASGADDGEICIWDLLKPSEPSHFPLLKGSGSATQGEISFISWNRKVQQILASTSYNGTTVIWDLRKQKPIINFADSVRRRCSVLQWNPNVTTQIMVASDDDSSPTLKLWDMRNIMSPVREFTGHQRGVIAMEWCPSDSSYLLTCAKDNRTICWDTNTAEIVAELPAGNNWNFDVHWYPKIPGVISASSFDGKIGIYNIEGCSRYGVEENNFGTAPLKAPKWYKRPVGASFGFGGKLVSCHARAPAKGTSSILSEVFLHSLVTEQSLVSRTSEFEAAIENGDMTSLRGLCEKKSEETESEEEKETWGLLKIMFEEEGTSRTKLISHLGFTLPVAEKDQAVDGLSSDLNGIRLEDTAADALDLDDSNEAAAFAMDNGEDFFNNFPAKPDTPVSTSAKDFMPSDTDFSTKGEETQEMQEEEEESSDPVFDNAIQRALIVGDYKEAVDQCITANKMADALVIAHVGGTALWESTREKYLKTSSAPYMKVVSAMVNNDLRSLIYTRSHKFWKETLALLCTFAQGEQWTTLCDALASKLMAAGNTLAAVLCYICAGNVDRTVEIWSRSLANERDGRSYAELLQDLMEKTLVLALATGNKKFSASLCKLFESYAEILASQGLLTTAMKYLKVLDSGGLSPELSILRDRISLSAEPETNTTASGNTQPQSTMPYNQEPTQAQPNVLANPYDNQYQQPYTDSYYVPQVSHPPMQQPTMFMPHQAQPAPQPSFTPAPTSNAQPSMRTTFVPSTPPALKNADQYQQPTMSSHSFTGPSNNAYPVPPGPGQYAPSGPSQLGQYPNPKMPQVVAPAAGPIGFTPMATPGVAPRSVQPASPPTQQAAAQAAPAPATPPPTVQTADTSNVPAHQKPVIATLTRLFNETSEALGGARANTTKKREIEDNSRKLGALFVKLNSGDISKNAADKLAQLCQALDNNDFSTALQIQVLLTTSEWDECNFWLATLKRMMVKARQNVR
binds	UDP-sugar-pyrophosphorylase (USP) (endogenous) (enzyme, UniProt Q9C5I1 1-614) MASTVDSNFFSSVPALHSNLGLLSPDQIELAKILLENGQSHLFQQWPELGVDDKEKLAFFDQIARLNSSYPGGLAAYIKTAKELLADSKVGKNPYDGFSPSVPSGENLTFGTDNFIEMEKRGVVEARNAAFVLVAGGLGERLGYNGIKVALPRETTTGTCFLQHYIESILALQEASNKIDSDGSERDIPFIIMTSDDTHSRTLDLLELNSYFGMKPTQVHLLKQEKVACLDDNDARLALDPHNKYSIQTKPHGHGDVHSLLYSSGLLHKWLEAGLKWVLFFQDTNGLLFNAIPASLGVSATKQYHVNSLAVPRKAKEAIGGISKLTHVDGRSMVINVEYNQLDPLLRASGFPDGDVNCETGFSPFPGNINQLILELGPYKDELQKTGGAIKEFVNPKYKDSTKTAFKSSTRLECMMQDYPKTLPPTARVGFTVMDIWLAYAPVKNNPEDAAKVPKGNPYHSATSGEMAIYRANSLILQKAGVKVEEPVKQVLNGQEVEVWSRITWKPKWGMIFSDIKKKVSGNCEVSQRSTMAIKGRNVFIKDLSLDGALIVDSIDDAEVKLGGLIKNNGWTMESVDYKDTSVPEEIRIRGFRFNKVEQLEKKLTQPGKFSVED
